{"source": "paper PMC6338774", "about": "“Syntheses and cytotoxicity of phosphatidylcholines containing ibuprofen or naproxen moieties” (Scientific Reports, 2019)", "key": {"[1]": {"system": "human promyelocytic leukemia HL-60 cells", "experiment": "WST-1 cell proliferation assay, HL-60 cells", "format": "cell-based", "conditions": "WST-1, 72 h", "procedure": "(§1) Human promyelocytic leukemia HL-60 cells and human colon cancer cell line Caco-2 were obtained from the American Type Culture Collection (Manassas, VA, USA). […] (Institute of Biotechnology, Faculty of Environment and Natural Sciences, Brandenburg University of Technology Cottbus-Senftenberg, Senftenberg, Germany)[34] were cultured in DMEM medium supplemented with 10% fetal bovine serum (FBS, Invitrogen, Carlsbad, USA), 2 mM glutamine and antibiotics (complete DMEM). Cells (4 × 10^3/well) were grown for 24 h in 96-well plates (Sarstedt, Germany) in appropriate complete medium at 37 °C and atmosphere containing 5% CO2. […] After indicated periods of time, WST-1 mixture was added to each well, and the cells were cultured for additional 6 h. The absorbance at 450 nm was measured on an EnSpire 2300 Multilabel Reader (Perkin-Elmer, USA), and data were analyzed using the program EnSpire 9.0 (Perkin-Elmer, USA). The experiments were performed in triplicates and repeated at least three times independently. Results were presented as mean IC50 (concentration of the tested compound, that inhibits cell proliferation by 50%) ± standard deviation."}, "[2]": {"system": "human colon carcinoma Caco-2 cells", "experiment": "WST-1 cell proliferation assay, Caco-2 cells", "format": "cell-based", "conditions": "WST-1, 72 h, concentrations 50-200 µM, mean ± SD, na = not active in range tested", "procedure": "as §1, with “independently.” for “independently. Results were presented as mean IC50 (concentration of the tested compound, that inhibits cell proliferation by 50%) ± standard deviation.”"}}}
{"compound": "COc1ccc2cc([C@H](C)C(=O)O)ccc2c1", "note": "[Compound 2, naproxen]", "values": [{"measurement": "concentration up to which non-toxic, HL-60 cells", "setting": "[1]", "result": "≤ 100", "unit": "µM"}, {"measurement": "IC50", "setting": "[2]", "result": "113 ± 28.6", "unit": "µM"}]}
